# Reference: patent US20070293517A1, “Derivatives Of Chemotherapeutic Agents With A Formaldehyde Releasing Moiety” (RAMOT AT TEL AVIV UNIVERSITY LTD., priority 2004, published 2007)
# Some entries share one result that the patent states for a list of compounds.
# Assays:
# [1] = tested on: sensitive and resistant uterine cancer cells (MES-SA, MES-SA DXS); assay: Proliferation/survival, sensitive and resistant uterine cancer cells (both lines); type: cell-based, human
# Description: (§1) Cells: The human breast cancer cell lines MCF-7 and MCF-7 DX, were obtained from Dr. R. Supino (Laboratorio Oncologia, Milano, Italy); the murine 3LLD122 highly metastatic Lewis lung carcinoma cell line was obtained from Dr. Eisenbach L, the Weizmann Inst., Israel. […]
# (§2) Proliferation assay: cells at a density of 3-5×10^4 cells/ml in 200 μl medium supplemented with 10% FCS were seeded in tissue culture 96-well plates for 24 hours, and were then exposed for 72 hours to a novel derivative of a chemotherapeutic agent (in quadruplicate) as specified. […] The ethanol was thereafter discarded, 200 μl of 10 μg/ml HOECHST fluorescent dye (Sigma) solubilized in PBS were added and the fluorescence was measured at 390-460 nm with a FluoStar fluorometer. […] The optical density of the wells was measured with a microplate reader at 540 nm.
# (§3) IC50 and IC90 values were determined from the best-fitted curve where the percentages of survival were 50 or 90 respectively.
# [2] = tested on: colon cancer cells (LS-1034 and HT-29); assay: Survival of colon cancer cells (both lines); type: cell-based, human
# Description: as §1, §2, §3
smiles,measurement,setting,value
"CCCC(=O)OCn1c(=O)c(F)cn(C2CCCO2)c1=O [AN-420, 5-fluoro-2,3-dihydro-3-((R)-tetrahydrofuran-2-yl)-2,6-dioxopyrimidin-1(6H)-yl)methyl butyrate]",fold more potent than the parent compound tegafur,[1],5-14 fold
same,"fold more potent than tegafur, based on IC50 values",[2],at least 5 fold
